Laboratory results taken from patent US10512656B2, “Compositions and methods for the treatment of lysosomal storage disorders and disorders characterized by lysosomal dysfunction” (Baylor College of Medicine, priority 2016, dated 2019).
At least one compound was matched to its structure with a doubt left.

Experiments:
TFEB [1] = settings: mTORC1 allosteric inhibitor; cited from earlier work
TFEB [2] = test: TFEB nuclear translocation in HeLa/TFEB cells; format: cell-based, human; settings: confocal microscopy and subcellular fractionation
Protocol: Control (Coriell Institute, USA) and JNCL fibroblasts (Gaslini Institute, Italy) were grown in DMEM (1:1, HyClone) supplemented with 10% heat-inactivated fetal bovine serum (FBS, Atlanta Biologicals), 2 mM L-glutamine, 100 U/ml penicillin and […] streptomycin (Invitrogen). HeLa cells were incubated for 2 h with LY294002 ([…], Cell Signaling), Torin 1 (300 nM, Cayman Chemical) or for 24 h with trehalose (100 mM, Sigma), rapamycin (300 nM, Sigma), MK2206 (1 μM, Selleckchem), U0126 ([…], Tocris) and dialyzed serum (GE Healthcare Life Sciences) for 30 min. For immunofluorescence assay, cells were grown on coverslips in 24-well plates. After the treatment, cells were washed with PBS and fixed with methanol for 10 min. Cells were then blocked with blocking reagent (0.1% saponin, 10% bovine serum in PBS) for 1 h and incubated with appropriate primary antibody(s) (1:100) for 3 h at room temperature. After three washes with PBS, the cells were incubated with appropriate secondary antibodies (1:500) for 1 h at room temperature. Coverslips were then mounted with vectashield containing 4,6-diamidino-2-phenylindole (H-1200) for imaging via confocal microscopy. Cell pellets were resuspended in lysis buffer (10 mM Hepes pH 7.9, 10 mM KCl, 0.1 mM EDTA and 0.4% Nonidet P40) with inhibitors by pipetting and kept in ice for 30 min. […]

In the case of `CO[C@H]1C[C@@H]2CC[C@@H](C)[C@@](O)(O2)C(=O)C(=O)N2CCCC[C@H]2C(=O)O[C@H]([C@H](C)C[C@@H]2CC[C@@H](O)[C@H](OC)C2)CC(=O)[C@H](C)/C=C(\C)[C@@H](O)[C@@H](OC)C(=O)[C@H](C)C[C@H](C)/C=C/C=C/C=C/1C` [rapamycin], the TFEB activation (TFEB [1]) is given as “quite ineffective at activating TFEB”.
In the case of `O=c1cc(N2CCOCC2)oc2c(-c3ccccc3)cccc12` [LY294002], the “TFEB nuclear translocation on kinase inhibitors” value (TFEB [2]) is reported as “nuclear translocation of TFEB”.
